Measurements published in PMC11369169.
Results are given in words; binding and its absence hold for the method and conditions named. Binding seen in cells or lysates may run through a third protein. Some entries that bind do so weakly or less than the wild type.

Sequences of proteins named here, by UniProt entry; tags and fusion partners are left off.
UniProt Q86TM6: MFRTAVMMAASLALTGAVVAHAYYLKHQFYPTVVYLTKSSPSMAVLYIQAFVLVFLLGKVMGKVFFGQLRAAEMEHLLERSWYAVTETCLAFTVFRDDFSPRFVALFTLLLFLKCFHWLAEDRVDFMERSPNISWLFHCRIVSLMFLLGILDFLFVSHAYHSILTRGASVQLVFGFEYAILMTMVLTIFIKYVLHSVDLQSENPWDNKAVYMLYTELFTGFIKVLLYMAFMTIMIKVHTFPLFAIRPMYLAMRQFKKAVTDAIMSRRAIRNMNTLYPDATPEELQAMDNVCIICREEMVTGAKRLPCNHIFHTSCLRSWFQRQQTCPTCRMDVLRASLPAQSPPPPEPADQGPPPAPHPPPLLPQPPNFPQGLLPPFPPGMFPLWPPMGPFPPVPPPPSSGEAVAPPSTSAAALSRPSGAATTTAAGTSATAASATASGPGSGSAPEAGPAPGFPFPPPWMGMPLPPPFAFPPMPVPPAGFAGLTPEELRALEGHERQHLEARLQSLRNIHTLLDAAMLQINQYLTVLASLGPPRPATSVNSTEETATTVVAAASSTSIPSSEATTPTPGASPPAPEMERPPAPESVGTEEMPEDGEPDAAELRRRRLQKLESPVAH

Target: T1, D-3-phosphoglycerate dehydrogenase (PHGDH) (human (endogenous in T24)) (UniProt O43175)
T1 sequence: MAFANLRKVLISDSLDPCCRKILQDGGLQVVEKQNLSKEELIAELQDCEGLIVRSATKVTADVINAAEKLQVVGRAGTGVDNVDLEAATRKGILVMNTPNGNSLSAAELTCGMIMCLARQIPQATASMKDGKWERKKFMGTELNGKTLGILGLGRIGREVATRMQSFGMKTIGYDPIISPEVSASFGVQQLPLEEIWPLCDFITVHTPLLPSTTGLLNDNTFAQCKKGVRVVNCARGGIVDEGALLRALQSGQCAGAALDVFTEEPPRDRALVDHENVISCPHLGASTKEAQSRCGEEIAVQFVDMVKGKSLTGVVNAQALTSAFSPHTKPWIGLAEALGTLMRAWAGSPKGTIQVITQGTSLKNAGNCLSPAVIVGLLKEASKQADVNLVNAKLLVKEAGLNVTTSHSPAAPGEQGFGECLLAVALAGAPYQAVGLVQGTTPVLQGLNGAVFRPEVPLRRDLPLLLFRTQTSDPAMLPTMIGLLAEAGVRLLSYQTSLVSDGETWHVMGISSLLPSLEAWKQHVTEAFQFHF
Assay: co-IP; whole-cell lysates of T24 / BC cells (IP lysis buffer), pre-cleared; antibody to PHGDH or SYVN1 (IgG control) overnight at 4 °C, Protein A/G magnetic beads, Western blot; also after circSIRT5 overexpression (interaction enhanced)

binding: binds
Substance: E3 ubiquitin ligase SYVN1 (from UniProt Q86TM6 1-617) (enzyme)
